Measurements taken from paper PMC9307627.
For some assays here: Negatives hold for the conditions tested. For some assays here: At least one verdict rests on a figure or table, not on a statement of the authors. For some assays here: Weaker means in comparison with the reference protein, sequence or condition of that experiment. For some assays here: Where a protein sequence is shown, tags need not be part of it. For some assays here: For at least one entry, the source does not settle the construct or the ends of the probe.

Chains of the proteins cited; added tags and fusions are not shown. Residues count along the entry.
UniProt P02769, 25-607: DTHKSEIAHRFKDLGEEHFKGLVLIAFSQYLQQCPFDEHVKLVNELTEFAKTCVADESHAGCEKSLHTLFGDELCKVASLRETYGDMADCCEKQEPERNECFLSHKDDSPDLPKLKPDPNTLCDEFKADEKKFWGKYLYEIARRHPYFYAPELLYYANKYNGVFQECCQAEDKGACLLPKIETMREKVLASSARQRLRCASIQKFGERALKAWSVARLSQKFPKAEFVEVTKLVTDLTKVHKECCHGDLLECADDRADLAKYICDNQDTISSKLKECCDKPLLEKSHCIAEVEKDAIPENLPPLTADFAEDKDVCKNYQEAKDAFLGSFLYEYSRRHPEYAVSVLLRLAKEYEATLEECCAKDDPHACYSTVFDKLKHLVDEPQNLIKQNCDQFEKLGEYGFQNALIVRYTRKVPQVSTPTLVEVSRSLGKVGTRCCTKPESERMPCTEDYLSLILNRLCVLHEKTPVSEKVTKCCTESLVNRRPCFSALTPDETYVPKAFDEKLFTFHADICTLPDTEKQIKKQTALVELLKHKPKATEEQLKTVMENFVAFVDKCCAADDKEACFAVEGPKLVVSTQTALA

Experiments:
Assay in all cases: ELONA
[1] = target: T1, full-length human sclerostin (FL hSOST) (human) (UniProt Q9BQB4); conditions: recombinant protein, residues 25-213, protein details: His6, label: biotin, single-stranded DNA
T1 sequence (looked up): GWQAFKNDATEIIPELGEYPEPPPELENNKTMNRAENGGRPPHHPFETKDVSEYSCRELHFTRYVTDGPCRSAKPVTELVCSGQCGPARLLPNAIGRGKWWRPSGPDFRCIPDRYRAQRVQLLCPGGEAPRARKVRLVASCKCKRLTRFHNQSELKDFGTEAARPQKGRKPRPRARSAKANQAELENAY

[2] = target: T2, sclerostin loop3-3 Q142A,R143A,V144A (human) (UniProt Q9BQB4); conditions: residues 135-164; label: biotin; single-stranded DNA
T2 sequence (looked up): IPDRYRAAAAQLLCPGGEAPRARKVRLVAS

[3] = target: T3, sclerostin loop3-2 R138A,Y139A,R140A (human) (UniProt Q9BQB4); conditions: residues 135-164; label: biotin; single-stranded DNA
T3 sequence (looked up): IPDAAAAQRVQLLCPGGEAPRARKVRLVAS

[4] = target: T4, sclerostin loop3-6 G151A,E152A (human) (UniProt Q9BQB4); conditions: residues 135-164; label: biotin; single-stranded DNA
T4 sequence (looked up): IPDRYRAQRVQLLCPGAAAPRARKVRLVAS

[5] = target: T5, sclerostin loop3-4 Q145A,L146A,L147A (human) (UniProt Q9BQB4); conditions: residues 135-164; label: biotin; single-stranded DNA
T5 sequence (looked up): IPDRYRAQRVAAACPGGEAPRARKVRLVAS

BSA = BSA (UniProt P02769); conditions: commercial protein; label: biotin; single-stranded DNA
[6] = target: T6, sclerostin loop3-8 R157A,K158A,V159A (human) (UniProt Q9BQB4); conditions: residues 135-164; label: biotin; single-stranded DNA
T6 sequence (looked up): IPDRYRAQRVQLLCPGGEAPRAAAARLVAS

[7] = target: T7, sclerostin loop3-1 I135A,P136A,D137A (human) (UniProt Q9BQB4); conditions: residues 135-164; label: biotin; single-stranded DNA
T7 sequence (looked up): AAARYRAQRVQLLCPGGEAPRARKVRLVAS

**Q.** Does “AGAGTTATAAATGGTAGAGGGAGCGGGCTAACCGGCTGTG [aptamer candidate 136]” bind ([1]; specific to loop3, Kd N/A)?
**A.** binds

**Q.** Does “CGGGGTGTGGGTTCGTCGTTAGCTTGATTTGGCAGCTGCC [aptscl56]” bind [2]?
**A.** binds

**Q.** Does “CGGGGTGTGGGTTCGTCGTTAGCTTGATTTGGCAGCTGCC [aptscl56]” bind [3]?
**A.** binds

**Q.** Does “CGGGGTGTGGGTTCGTCGTTAGCTTGATTTGGCAGCTGCC [aptscl56]” bind [4]?
**A.** binds

**Q.** Does “CGGGGTGTGGGTTCGTCGTTAGCTTGATTTGGCAGCTGCC [aptscl56]” bind [5]?
**A.** binds more weakly

**Q.** Does “CGGGGTGTGGGTTCGTCGTTAGCTTGATTTGGCAGCTGCC [aptscl56]” bind (BSA)?
**A.** no binding

**Q.** Does “CGGGGTGTGGGTTCGTCGTTAGCTTGATTTGGCAGCTGCC [aptscl56]” bind [6]?
**A.** binds

**Q.** Does “CGGGGTGTGGGTTCGTCGTTAGCTTGATTTGGCAGCTGCC [aptscl56]” bind [7]?
**A.** binds more weakly

**Q.** Does “GGGGGTTTCCAGGGGGTCCTTGATGCTAGATTGTATG [aptamer candidate 36]” bind ([1]; specific to loop3, Kd N/A)?
**A.** binds

**Q.** Does “GTCAGCTCTTGTGGTCCTCGCAGCGAAAAGGCTCTGGCGG [aptamer candidate 2]” bind ([1]; specific to loop3, no Kd given)?
**A.** binds

**Q.** Does “TAGGATTGGCGGGCATTGCACTCCTTCAGGAGGTACGGTC [aptamer candidate 140]” bind ([1]; specific to loop3, Kd N/A)?
**A.** binds
